Measured values published in US20110082203A1, “PROCESS TO DIAGNOSE OR TREAT BRAIN INJURY” (priority 2008, published 2011).

Test system: α-II spectrin breakdown products (SBDP)
Conditions: CSF, 24 hours post-TBI; 5 mg/kg i.p.; p=0.028

In the case of `CCN(CC)CCOC(=O)C1(C2CCCCC2)CCCCC1` [Dicyclomine, dicyclomine], the “145 kDa SBDP levels compared to the vehicle treatment group” value is reported as “significantly (p=0.028) reduced”.
